Results on one compound are retold here after patent US20060062732A1, “Medicine for detecting lipid components in vivo and vascular endoscope” (Yasumi UCHIDA, priority 2004, published 2006).

Data set [1] can be described thus: Dye-evoked fluorescence of calcium phosphate, fluorescent microscopy. Set-up: key: B: blue.; G: green.; O: orange.; W: white.; Y: yellow.
Data set [2] concerns Atherosclerotic plaques of human coronary artery. Description: Scanning microscopic observation of dye-evoked fluorescence in removed human coronary plaques. To be noted: plaque segments dipped into 10^-5 M dye solution for 5 min.
For data set [3] the test system is unchanged. Description: Dye-evoked fluorescence of human coronary plaques by color fluorescent image angioscopy system. The conditions noted are these: artery perfused with dye solution for 5 min; filters not stated.
Data set [4] has as its system OxLDL (oxidized low density lipoprotein). Put plainly: Dye-evoked fluorescence of oxLDL, fluorescent microscopy. Set-up: key: B: blue.; G: green.; O: orange.; W: white.; Y: yellow. To be noted: exciting 470 nm, emitting 515 nm.
Data set [5] deals with LDL (low density lipoprotein). Description: Dye-evoked fluorescence of LDL, fluorescent microscopy. Set-up: key: B: blue.; G: green.; O: orange.; W: white.; Y: yellow. The conditions noted are these: exciting 470 nm, emitting 515 nm.
Data set [6] concerns IDL (intermediate density lipoprotein). Description: Dye-evoked fluorescence of IDL, fluorescent microscopy. Set-up: key: B: blue.; G: green.; O: orange.; W: white.; Y: yellow. The conditions noted are these: exciting 470 nm, emitting 515 nm.
Data set [7] in a line: Dye-evoked fluorescence of PC, fluorescent microscopy. Set-up: key: B: blue.; G: green.; O: orange.; W: white.; Y: yellow. To be noted: exciting 470 nm, emitting 515 nm.
Data set [8] in a line: Dye-evoked fluorescence of TG, fluorescent microscopy. To be noted: exciting 470 nm, emitting 515 nm. Set-up: key: B: blue.; G: green.; O: orange.; W: white.; Y: yellow.
Data set [9] deals with OxLDL (oxidized low density lipoprotein). Put plainly: Dye-evoked fluorescence of oxLDL, fluorescent microscopy. Set-up: key: B: blue.; Br: brown.; G: green.; Go: gold.; O: orange.; P: purple.; R: red.; SB: sky blue.; V: violet.; W: white.; Y: yellow. The conditions noted are these: exciting 360 nm, emitting 420 nm.
For data set [10], the system named is LDL (low density lipoprotein). Description: Dye-evoked fluorescence of LDL, fluorescent microscopy. The conditions noted are these: exciting 360 nm, emitting 420 nm. Set-up: key: B: blue.; Br: brown.; G: green.; Go: gold.; O: orange.; P: purple.; R: red.; SB: sky blue.; V: violet.; W: white.; Y: yellow.
The subject of data set [11] is VLDL (very low density lipoprotein). Description: Dye-evoked fluorescence of VLDL, fluorescent microscopy. Also on record: key: B: blue.; Br: brown.; G: green.; Go: gold.; O: orange.; P: purple.; R: red.; SB: sky blue.; V: violet.; W: white.; Y: yellow.
For data set [12], the system named is HDL (high density lipoprotein). Description: Dye-evoked fluorescence of HDL, fluorescent microscopy. Also on record: key: B: blue.; Br: brown.; G: green.; Go: gold.; O: orange.; P: purple.; R: red.; SB: sky blue.; V: violet.; W: white.; Y: yellow.
The nature of data set [13]: Dye-evoked fluorescence of PC, fluorescent microscopy. Also on record: key: B: blue.; Br: brown.; G: green.; Go: gold.; O: orange.; P: purple.; R: red.; SB: sky blue.; V: violet.; W: white.; Y: yellow. The conditions noted are these: exciting 360 nm, emitting 420 nm.
A short description of data set [14]: Dye-evoked fluorescence of lyso PC, fluorescent microscopy. Set-up: key: B: blue.; Br: brown.; G: green.; Go: gold.; O: orange.; P: purple.; R: red.; SB: sky blue.; V: violet.; W: white.; Y: yellow.
Data set [15] can be described thus: Dye-evoked fluorescence of TG, fluorescent microscopy. Set-up: key: B: blue.; Br: brown.; G: green.; Go: gold.; O: orange.; P: purple.; R: red.; SB: sky blue.; V: violet.; W: white.; Y: yellow. The conditions noted are these: exciting 360 nm, emitting 420 nm.
Setting [16] is: exciting 360 nm, emitting 420 nm.
The mark [17] stands for this setting: exciting 470 nm, emitting 515 nm.

Regarding `Cc1cc(-c2ccc(/N=N/c3c(S(=O)(=O)[O-])cc4cc(S(=O)(=O)[O-])cc(N)c4c3O)c(C)c2)ccc1/N=N/c1c(S(=O)(=O)[O-])cc2cc(S(=O)(=O)[O-])cc(N)c2c1O.[Na+].[Na+].[Na+].[Na+]` [Tripan blue], the Dye-evoked fluorescence colour entry in [1] (setting [16]) is given as “B”; in data set [1] (setting [17]) it was “G”; in [4], “O”; in data set [5] it was “O”; in data set [6], “G”; in data set [7], “O”. Besides, the Dye-evoked fluorescence colour result is on record as “O” in data set [8]; “V” in data set [9]; “V” in data set [10]; “V” in [11] (setting [16]); “R” in data set [11] (setting [17]); “P” in data set [12] (setting [16]). The Dye-evoked fluorescence colour result in [12] (setting [17]) was “R”; in data set [13], “P”; in data set [14] (setting [16]), “R”; in [14] (setting [17]), “R”; in data set [15] it was “P”. In addition, the “Dye-evoked fluorescence of the plaque” value in data set [2] (exciting at 360 nm and emitting at 420 nm) is “red fluorescence”; in data set [2] (exciting at 470 nm and emitting at 515 nm) it was “red fluorescence”. Moreover, the “Dye-evoked fluorescent image of the plaque” value in data set [3] is reported as “red fluorescence”.
